Results as given in PubChem BioAssay AID2685 (National Center for Advancing Translational Sciences (NCATS), 2010).
The list shows a part of the results. The main result of the screen is listed elsewhere. These columns were measured beside it and carry no call. The list favours compounds with an active or inconclusive main result. Words in brackets tell the shape of the fitted curve; partial curves, single points and poor fits give uncertain potencies.

Assay: qHTS Assay for Lipid Storage Modulators in Drosophila S3 Cells;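 on cell number change: cells counted by Cell Tracker Red CMTPX staining in the red channel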
Conditions: BODIPY lipid droplet fluorescence, 18-24 h; for cell number change: measured here: cell count max response, cells fed with added oleic acid
Procedure, shortened: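 Laser-scanning cytometry quantifies lipid droplet accumulation (500–530 nm total intensity; droplet/cell object ratio) in oleic acid-fed (400 uM added) Drosophila S3 cells treated with a concentration series. 20 uM Triacsin C defined 100% inhibition.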

[1] = measured here: lipid fluorescence (Fed channel) AC50, cells fed with added oleic acid
[2] = measured here: cell number channel AC50, cells fed with added oleic acid

Row | Structure (SMILES) | cell number change [%] | AC50 [1] | AC50 [2]
1 | CCOc1ccccc1NC(=O)CN1CCC(C(=O)c2ccc(OC)cc2)CC1 | 18.9 | 1.03 µM [falling, full curve, poor fit] | 
2 | CN1/C(=C\P(=O)(N(C)C)N(C)C)C(C)(C)c2ccccc21 | -17 | 14.6 µM [falling, partial curve] | 
3 | Cc1cc(O)c(C(C)C)cc1NC(=O)c1cccc(Cl)c1 | 0.255 | 2.91 µM [falling, full curve] | 
4 | CC(=O)OCC(=O)[C@@]1(O)CC[C@H]2[C@@H]3CCC4=CC(=O)C=C[C@]4(C)[C@@]3(Cl)[C@@H](Cl)C[C@@]21C | -23.4 | 6.51 µM [falling, full curve] | 
5 | CCOC(=O)c1c(C)[nH]c(C)c1C(=O)COc1ncnc2cc([N+](=O)[O-])ccc12 | 19.5 | 0.651 µM [rising, full curve, poor fit] | 6.51 µM [rising, single point]
6 | COc1cc(/C=C2\SC(=O)N(Cc3ccc(Cl)cc3)C2=O)cc([N+](=O)[O-])c1O | 3.68 | 0.82 µM [rising, single point] | 
7 | C/[N+]([O-])=C\c1coc2ccccc2c1=O | 31.1 | 3.26 µM [rising, single point] | 32.6 µM [rising, single point]
8 | CCCCNc1c([N+](=O)[O-])cc(C)cc1[N+](=O)[O-] | -13.2 | 29.1 µM [falling, single point] | 
9 | CC(=O)Nc1ccc(NC(=O)C(C)OC(=O)CCCN2C(=O)c3cccc4cccc(c34)C2=O)cc1 (stereo not drawn) | -50.8 |  | 29.1 µM [falling, single point]
10 | N#Cc1cc(NC(=O)c2ccc(F)cc2)c(=O)n2c1[nH]c1ccccc12 | -19.9 | 16.4 µM [falling, partial curve] | 
11 | Cc1ccc(C)c2[nH]c(=O)c(CCNC(=O)CC(C)(C)C)cc12 | 10.4 | 0.731 µM [rising, full curve] | 
12 | COC(=O)c1ccc(C(=O)OC)c(NC(=O)CN(C)Cc2ccccc2)c1 |  | 1.3 µM [rising, full curve] | 
13 | COc1ccc(OC(C)c2nnc(N)s2)cc1 (stereo not drawn) | 35.9 |  | 
14 | Cc1cc(C(=O)CN2C(=O)NC3(CCCC3)C2=O)c(C)n1-c1ccc2c(c1)OCO2 | 7.71 | 0.13 µM [rising, full curve, poor fit] | 
15 | O=C(CNC(=O)c1ccccc1)NCCO | -14.7 |  | 
16 | CCOc1nc(SCCOc2ccc(Cl)cc2Cl)nc(N(C)C)n1 | 30.6 | 2.06 µM [rising, partial curve] | 2.91 µM [rising, partial curve]
17 | CCN(CCNC(=O)c1ccc2nc(-c3ccccc3NC(C)=O)c(=O)[nH]c2c1)c1ccccc1 | -76.9 | 2.59 µM [rising, full curve, poor fit] | 3.66 µM [falling, partial curve]
18 | O=c1[nH]c2ccccc2nc1/C=C(\O)C1CC1 | 13.3 | 0.0517 µM [rising, full curve] | 
19 | S=C(Nc1ccc(Cl)cc1Cl)N1CCCCC1 | 5.09 | 29.1 µM [falling, single point] | 
20 | CCc1cc(=O)oc2cc(OCC(=O)N3CCC[C@H]3C(=O)O)ccc12 | 5.99 | 29.1 µM [rising, single point] | 
21 | CCN1C(=O)/C(=C2\SC(N3CCOCC3)=NC2=O)c2ccccc21 | -22.2 | 29.1 µM [falling, partial curve, poor fit] | 
22 | COc1ccccc1NC(=O)c1c(Br)cnn1C | 32.3 |  | 3.26 µM [rising, single point]
23 | CCCn1c(N2CCN(CC(=O)c3c(C)n(C)c4ccccc34)CC2)nc2c1c(=O)[nH]c(=O)n2C | 5.62 | 2.59 µM [rising, full curve] | 
24 | Cc1nn(Cc2c(F)cccc2Cl)c(C)c1[N+](=O)[O-] | -9 | 6.51 µM [rising, single point] | 
25 | Cc1ccc(S(=O)(=O)NCCC(=O)Nc2ccc3c(c2)OCO3)cc1 | -12.6 | 0.0651 µM [rising, single point] | 
26 | N#Cc1ccc(NC(=O)Cn2c3[n+](c4ccc(C(F)(F)F)cc42)CCCCC3)cc1 | -14 | 35.5 µM [falling, partial curve, poor fit] | 
27 | COc1ccc(/C=N/NC(=O)CCn2cnc(-c3ccccc3)c2-c2ccccc2)cc1OC | -23.9 | 3.26 µM [rising, single point] | 2.91 µM [rising, single point]
28 | O=C(CCc1nc2ccccc2c(=O)[nH]1)NNC(=O)COc1ccccc1Cl | 6.5 | 0.291 µM [falling, full curve, poor fit] | 

Ordered by molecular weight (smallest number first): some entries from above
Row | Structure (SMILES) | cell number change [%] | AC50 [1] | AC50 [2]
7 | C/[N+]([O-])=C\c1coc2ccccc2c1=O | 31.1 | 3.26 µM [rising, single point] | 32.6 µM [rising, single point]
16 | CCOc1nc(SCCOc2ccc(Cl)cc2Cl)nc(N(C)C)n1 | 30.6 | 2.06 µM [rising, partial curve] | 2.91 µM [rising, partial curve]
4 | CC(=O)OCC(=O)[C@@]1(O)CC[C@H]2[C@@H]3CCC4=CC(=O)C=C[C@]4(C)[C@@]3(Cl)[C@@H](Cl)C[C@@]21C | -23.4 | 6.51 µM [falling, full curve] | 
